Test results reported in patent US5700640A, “Inducers of gamma globin gene expression and screening assays therefor” (priority 1994, dated 1997).

Tested on: 28S ribosomal RNA
Assay: Northern hybridization of 28S ribosomal RNA (standardization) in treated K562 cells
Assay type: cell-based, human
Conditions: 5 mM, 96 hours

In the case of `CCCC(=O)O` [BA, butyric acid], the “Raw Value, 28S RNA” value is reported as 6.19 × 10^6.

With `CC(C)CC(=O)O` [IVA, isovaleric acid] the “Raw Value, 28S RNA” value was 1.85 × 10^6.

`CCCCC(=O)O` [VA, valeric acid] was tested, and the “Raw Value, 28S RNA” value was 1.66 × 10^6.
